Reference: US9034825B2, “Treatment of myocardial injury with humanin analogs” (Albert Einstein College of Medicine of Yeshiva University, priority 2007, dated 2015)

Tests used:
[1] = test system: Sprague-Dawley rats; experiment: ICV infusion of humanin or F6A HN with basal and hyperinsulinemic clamp (Example 2); format: in vivo, rat
Description: (§1) Young (3 mo old, n=6 in each group), male Sprague-Dawley rats (Charles River Laboratories, Wilmington, Mass.) were used for this study. Rats were housed in individual cages and were subjected to a standard light (6:00 AM to 6:00 PM)—dark (6:00 PM to 6:00 AM) cycle. All rats were fed ad libitum using regular rat chow that consisted of 64% carbohydrate, 30% protein, and 6% fat with a physiological fuel value of 3.3-kcal/g chow. 2 to 4 weeks before the in vivo study, the rats were anesthetized by inhalation of isoflurane and ICV cannula was placed in the third ventricle for infusions of humanin, humanin analog F6A HN or artificial CSF (aCSF), as previously described (Muzumdar et al., 2003) (FIG. 6). Briefly, a 26-gauge stainless steel guide cannula (Plastics One, Roanoke, Va.) was chronically implanted into the third ventricles using the following coordinates from bregma: anterior-posterior; +0.2 mm dorsal-ventral; −9.0 mm medial-lateral; 0.0 directly on the mid-sagittal suture, followed by a 28-gauge dummy cannula, inserted to prevent clogging of the guide cannula. The implant was secured to the skull with Caulk Grip dental cement, and the skin was closed over the implant using wound clips. The recovery of rats from the surgical stress was monitored with daily weight, food intake, and movement.
(§2) Upon recovery of body weight, usually a week, indwelling catheters were placed in the right internal jugular vein and in the left carotid artery (Muzumdar et al., 2003). The venous catheter was extended to the level of the right atrium, and the arterial catheter was advanced to the level of the aortic arch. Recovery was continued until body weight was within 3% of the pre-operative weight (˜4-6 days). In the rats that received peripheral humanin, only the vascular catheters were placed.
(§3) Studies were performed in unrestrained rats using the insulin clamp technique, in combination with high performance liquid chromatography-purified [3-^3H]glucose, as described previously (Liu et al., 1998). Food was removed for ˜5 h before the in vivo protocol. All studies lasted 360 min and included a 120-min equilibration period, a 120-min basal period for assessment of the basal glucose turnover, and a 120-min hyperinsulinemic clamp period. All rats received ICV infusions (bolus followed by continuous ICV infusions of humanin, F6A HN or aCSF, depending on the group) over the entire 6 hours of the study. At the beginning of the basal period and 120 min before starting the glucose/insulin infusions, a primed-continuous infusion of high performance liquid chromatography-purified [3-^3H]glucose (NEN Life Science Products, Boston, Mass.; 20 μCi of bolus, 0.2 μCi/min) was initiated and maintained throughout the remaining 4 h of the study. In the final 2 hours of the study, the rats were subjected to hyperinsulinemic clamp. The protocol followed during the insulin clamp study was similar to that previously described (Liu et al., 1998). Briefly, a primed-continuous infusion of regular insulin (3 milliunits/kg-min) was administered, and a variable infusion of a 25% glucose solution was started and periodically adjusted to clamp the plasma glucose concentration at 7-8 mM. To prevent endogenous insulin secretion and in order to control for possible effects of ICV infusions on the endocrine pancreas, somatostatin (1.5 μg/kg-min) was also infused in all the groups.
A bolus of humanin (6 μg) was followed by a continuous infusion over 6 hours (total dose of 18 μg, 0.1 μg/kg/min).
F6A HN has one amino acid substitution (F6A-phenylalanine to alanine on position 6) and has been characterized. A bolus of F6 A HN ([…]) was followed by a continuous infusion over 6 hours (total 18 μg, 0.1 μg/kg/min).
Plasma glucose (sample volume 10 μl) was measured by the glucose oxidase method (Glucose Analyzer II, Beckman Instruments, Palo Alto, Calif.). […]

[2] = test system: Sprague-Dawley rats; experiment: ICV infusion of IGF-1, IGFBP-3 or NLS mutant with basal and hyperinsulinemic clamp; format: in vivo, rat; settings: for GH: plasma, end of clamp study; for Visceral fat: at sacrifice; for Body weight / Food intake: basal characteristics of group; for IGF-1: peripheral plasma
Description: as §1, with “chow. In the rats that received ICV infusions,” for “chow.”, “and a” for “and ICV”, “placed ICV” for “placed”, “of IGF-1, IGFBP-3 or IGFBP-3 mutant” for “of humanin, humanin analog F6A HN”, “artificial cerebrospinal fluid” for “artificial CSF”, “(FIG. 1).” for “(FIG. 6).”
as §2, with “IGFBP-3,” for “humanin,”
as §3, with “[3-^3H]glucose and [U-^14C]lactate infusions,” for “[3-^3H]glucose,”, “IGF-1, IGFBP-3, IGFBP-3 mutant” for “humanin, F6A HN”, “milliunits/kg·min)” for “milliunits/kg-min)”, “μg/kg·min)” for “μg/kg-min)”, “groups. [U-^14C]Lactate (5 μCi of bolus/0.25 μCi/min) was infused during the last 10 min of the study.” for “groups.”
A bolus of hIGF-1 (0.3 mcg, a gift from Tercica, South San Francisco) was followed by a continuous infusion over 6 hours (total dose of 1 mcg, 0.06 μg/kg/hr).
A bolus of non glycosylated hIGFBP-3 (1.25 μg, generously provided by Celtrix, Mountain View Calif.) was followed by a continuous infusion over 6 hours (total dose of 5.25 mcg, 0.26 μg/kg/hr). […]

[3] = basal characteristics of group, ICV humanin study
[4] = basal plasma, ICV humanin study
[5] = ICV IGFBP-3 or NLS mutant over 6 h, clamp study
[6] = ICV IGFBP-3 or NLS mutant over 6 h, hyperinsulinemic clamp 3 mU/kg/min, last 60 min
[7] = ICV IGFBP-3 or NLS mutant over 6 h, hyperinsulinemic clamp, last 60 min
[8] = ICV IGFBP-3 or NLS mutant over 6 h
[9] = basal plasma, ICV IGFBP-3/mutant study

Row | Compound | Leptin [2, 5] | Glucose [2, 6] | Insulin [2, 7] | IGF-1 [2, 8] | GH [2, 8] | Visceral fat ([2]; ICV IGFBP-3/mutant study) | Body weight ([2]; ICV IGFBP-3/mutant study) | Food intake ([2]; ICV IGFBP-3/mutant study) | FFA [2, 9] | Glucose [2, 9] | Insulin [2, 9] | Leptin [2, 9] | other results
1 | CC[C@H](C)[C@H](NC(=O)[C@H](CCC(=O)O)NC(=O)[C@H](CO)NC(=O)[C@@H](NC(=O)[C@H](CC(C)C)NC(=O)[C@H](CC(C)C)NC(=O)[C@H](CC(C)C)NC(=O)[C@H](CC(C)C)NC(=O)[C@H](CS)NC(=O)[C@H](CO)NC(=O)[C@H](Cc1ccccc1)NC(=O)CNC(=O)[C@H](CCCNC(=N)N)NC(=O)[C@@H]1CCCN1C(=O)[C@H](C)NC(=O)[C@@H](N)CCSC)[C@@H](C)O)C(=O)N[C@@H](CC(=O)O)C(=O)N[C@@H](CC(C)C)C(=O)N1CCC[C@H]1C(=O)N[C@H](C(=O)N[C@@H](CCCCN)C(=O)N[C@@H](CCCNC(=N)N)C(=O)N[C@@H](CCCNC(=N)N)C(=O)N[C@@H](C)C(=O)O)C(C)C [Humanin, maprgfscll lltseidlpv krra] |  |  |  |  |  |  |  |  |  |  |  |  | Glucose ([1]; ICV 18 μg over 6 h, hyperinsulinemic clamp 3 mU/kg/min, last 60 min): 1.4 ± 0.04 g/dL; Insulin ([1]; ICV 18 μg over 6 h, hyperinsulinemic clamp, last 60 min): 4.8 ± 0.5 ng/mL; Visceral fat ([1]; at sacrifice, ICV humanin study): 3.02 ± 0.4 g; Body weight [1, 3]: 294 ± 28 g; Food intake [1, 3]: 25.4 ± 0.9 g; FFA [1, 4]: 1.19 ± 0.34 mEq/L; Glucose [1, 4]: 1.49 ± 0.07 g/dL; Insulin [1, 4]: 1.13 ± 0.16 ng/mL
2 | IGF-1: hIGF-1, Insulin-like growth factor-1, a gift from Tercica |  |  |  |  |  |  |  |  |  |  |  |  | Leptin ([2]; ICV IGF-1 1 μg over 6 h, clamp study): 2.18 ± 0.48 ng/mL; Glucose ([2]; ICV IGF-1 1 μg over 6 h, hyperinsulinemic clamp 3 mU/kg/min, last 60 min): 7.3 ± 0.1 mmol/L; Insulin ([2]; ICV IGF-1 1 μg over 6 h, hyperinsulinemic clamp, last 60 min): 40.53 ± 6.0 uU/ml; GH ([2]; ICV IGF-1 1 μg over 6 h): 2.15 ± 0.94 ng/mL; Visceral fat ([2]; ICV IGF-1 study): 4.0 ± 0.2 g; Body weight ([2]; ICV IGF-1 study): 294 ± 14 g; Food intake ([2]; ICV IGF-1 study): 22 ± 2 g; FFA ([2]; basal plasma, ICV IGF-1 study): 0.70 ± 0.04 mEq/L; Glucose ([2]; basal plasma, ICV IGF-1 study): 7.6 ± 0.1 mmol/L; Insulin ([2]; basal plasma, ICV IGF-1 study): 1.94 ± 0.32 ng/mL; Leptin ([2]; basal plasma, ICV IGF-1 study): 0.91 ± 0.05 ng/mL
3 | IGFBP-3: non glycosylated hIGFBP-3 (IGF binding protein-3), provided by Celtrix | 3.05 ± 0.83 ng/mL | 7.5 ± 0.4 mmol/L | 57.8 ± 3.8 uU/ml | 667 ± 62 ng/mL | 1.28 ± 0.21 ng/mL | 4.5 ± 0.7 g | 333 ± 16 g | 25.8 ± 0.9 g | 0.92 ± 0.05 mEq/l | 7.7 ± 0.3 mmol/L | 1.36 ± 0.07 ng/mL | 2.50 ± 0.23 ng/mL | 
4 | NLS: non-glycosylated NLS mutant of IGFBP-3 with two amino acid substitutions (K228E and R230G) | 2.79 ± 0.77 ng/mL | 7.7 ± 0.2 mmol/L | 55.4 ± 11.5 uU/ml | 595 ± 81 ng/mL | 2.87 ± 0.94 ng/mL | 5.4 ± 0.6 g | 333 ± 15 g | 25.3 ± 1.6 g | 0.85 ± 0.11 mEq/l | 7.7 ± 0.2 mmol/L | 1.24 ± 0.54 ng/mL | 2.09 ± 0.47 ng/mL | 
